{"source": "paper PMC4047138", "about": "(Pharmacological research : the official journal of the …, 2013)", "origin": "cited, not measured here", "system": "GnRHR[E^90K]", "conditions": "mouse, in vivo; cited from earlier work"}
{"smiles": "Cc1cc(C)cc(-c2[nH]c3ccc(C(C)(C)C(=O)N4CC5CCC4CC5)cc3c2[C@H](C)CNCCc2ccncc2)c1", "note": "[IN3, (2S)-2-[5-[2-(2-azabicyclo[2.2.2]oct-2-yl)-1,1-dimethyl-2-oxoethyl]-2-(3,5-dimethylphenyl)-1H-indol-3-yl]-N-(2-pyridin-4-ylethyl)propan-1-amine]", "values": [{"measurement": "CYP11A1 protein expression in testes (wild-type = 100%)", "value": 50, "unit": "%"}]}
